Measurements from publication PMC5992168.
Results are given in words; binding and its absence hold for the method and conditions named. Binding seen in cells or lysates may run through a third protein.

Experiments:
[1] = target: T1, EAAT3, endogenous mouse (mouse (endogenous in primary neurons)) (UniProt P51906); assay: FRET or BRET; spectral FRET in fixed mouse primary neurons; immunostained with primary and AF488/Cy3 secondary antibodies; R/G ratio
T1 sequence: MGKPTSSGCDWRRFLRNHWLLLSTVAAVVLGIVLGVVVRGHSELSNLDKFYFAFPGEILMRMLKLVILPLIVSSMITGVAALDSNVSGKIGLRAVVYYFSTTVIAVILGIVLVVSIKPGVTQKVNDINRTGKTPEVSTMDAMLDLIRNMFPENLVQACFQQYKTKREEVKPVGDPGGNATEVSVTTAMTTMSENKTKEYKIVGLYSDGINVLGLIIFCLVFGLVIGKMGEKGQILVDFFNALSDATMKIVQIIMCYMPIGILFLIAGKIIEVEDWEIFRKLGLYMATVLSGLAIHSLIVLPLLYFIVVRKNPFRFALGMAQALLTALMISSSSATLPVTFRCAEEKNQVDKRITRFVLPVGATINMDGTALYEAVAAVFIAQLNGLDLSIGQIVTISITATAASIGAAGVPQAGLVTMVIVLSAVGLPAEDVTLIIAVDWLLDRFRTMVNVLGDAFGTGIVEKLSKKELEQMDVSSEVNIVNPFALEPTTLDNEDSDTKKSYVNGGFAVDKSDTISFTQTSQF

[2] = target: T2, GLAST, endogenous mouse (mouse (endogenous in primary astrocytes)) (UniProt P56564); assay: FRET or BRET; spectral FRET in fixed mouse primary astrocytes; immunostained with primary and AF488/Cy3 secondary antibodies; R/G ratio; also cells treated 16 hours with vehicle or 1 uM DAPT
T2 sequence: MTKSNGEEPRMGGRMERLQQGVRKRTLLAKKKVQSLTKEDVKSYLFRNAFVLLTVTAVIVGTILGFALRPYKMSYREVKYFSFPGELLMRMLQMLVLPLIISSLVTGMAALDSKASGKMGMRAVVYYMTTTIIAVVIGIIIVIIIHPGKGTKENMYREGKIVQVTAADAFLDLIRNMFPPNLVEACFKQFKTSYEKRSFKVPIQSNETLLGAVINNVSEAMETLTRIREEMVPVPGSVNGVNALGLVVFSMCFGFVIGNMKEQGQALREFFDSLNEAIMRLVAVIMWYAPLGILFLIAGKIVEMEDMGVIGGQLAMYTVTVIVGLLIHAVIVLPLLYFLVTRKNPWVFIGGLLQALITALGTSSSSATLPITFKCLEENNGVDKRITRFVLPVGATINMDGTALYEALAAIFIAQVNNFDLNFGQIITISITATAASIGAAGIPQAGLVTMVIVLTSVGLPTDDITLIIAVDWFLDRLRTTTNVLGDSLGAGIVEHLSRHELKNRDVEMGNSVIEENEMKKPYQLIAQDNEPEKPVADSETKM

binding [1]: no binding | binding [2]: no binding
Substance: PS1 C-terminal fragment (PS1-CTF), endogenous mouse (from UniProt P49769 293-467) (domain or fragment)
